Each number is a percent effect as filed.
The controls that fix the scale are not given in the record; negative values are as filed.
This is an unselected part of the compounds tested.
Two or more numbers in one place are separate tests of the same structure; such repeats can differ widely.

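Viability assay of Plasmodium falciparum sporozoites; the read-out is not stated. The concentration is filed as 10 mM, unlikely as a test dose, so the dose is not known. Direction is inferred from retests: higher values go with lower viability. Strong results were mostly tested again. Size under these conditions: about 34,000 compounds, about 280 of them at 50% or above in at least one test.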

* NC(=O)CC1CCN(C(=O)CCOc2ccc(Cl)cc2)CC1 : 8.409%
* CN1CC(C(=O)NCCOc2ccc3c(c2)OCO3)CC1=O (centres unmarked) : 3.902%
* CN(CC(N)=O)Cc1c(Cl)ccc2cccnc12 : 2.744%
* COC(=O)c1ccc(Cl)c(NS(=O)(=O)c2cnn(C)c2)c1 : -21.28%
* CCc1n[nH]c(C2CN(C(=O)Cn3ccccc3=O)CCO2)n1 (centres unmarked) : -6.205%
* CC(=O)N1CCN(C(=O)CCOc2ccc(C(C)C)cc2)CC1 : -10.06%
* CNC(=O)C1CN(C)CCN(CCCOc2ccccc2F)C1 (centres unmarked) : 3.397%
* O=C(O)C(F)(F)F.O=C(O)C(F)(F)F.[H][C@@]12CCN(Cc3cccc(C)n3)C[C@]1(C(=O)N1CCCO1)CCO2 : -14.84% and -24.76% and 6.066%
* CN(C)Cc1nnc(C2CCN(c3nccc(N)n3)CC2)n1C1CC1 : -8.287%
* Cc1cc(C)nc(N2Cc3cnn(Cc4ccc(F)cc4)c3C2)n1 : 9.657%
* [H][C@@]12CN(Cc3cccc(CN4CCOCC4)c3)C[C@]1(C(=O)O)CNC2=O : -7.929%
* Cc1nc(NC(=O)c2c(-n3cnnn3)sc3c2CCC3)sc1C : -13.64%
* COc1cccc(-n2c(C)cc(C(=O)O)c2C)c1 : -10.28%
* O[C@@H]1CN(Cc2cnccn2)C[C@H]1Oc1ccccc1 : 11.94%
* O=C(O)C(F)(F)F.O=C(O)C(F)(F)F.[H][C@@]12COC[C@]1(COCc1ccccn1)CN(c1cc(OC)ncn1)C2 : 7.967%
* CCN1CCN(C)C2(CCN(Cc3cccc(C)n3)CC2)C1=O.O=C(O)C(F)(F)F.O=C(O)C(F)(F)F : 3.08%
* CC(=O)N1CCN(CC(C)(O)c2cccc(C(F)(F)F)c2)CC1 (centres unmarked) : -3.103%
* CO[C@H]1CN(Cc2ccccc2F)C[C@@]12CCCO2 : -1.004%
* CN(c1cccnc1N1CCCC1)S(=O)(=O)c1cnn(C)c1 : -6.992%
* O=c1[nH]c2c(c(=O)n1C1CCCCC1)CCC2Nc1ccccc1Cl (centres unmarked) : -9.43%
* CC(CNC(=O)c1cccc(C#N)c1)N1CCc2ccccc21 (centres unmarked) : 6.773% and -0.8352%
* CCC[C@@H]1CN(S(=O)(=O)c2ccc(C)c(F)c2)C[C@H]1N(C)C : 2.361%
* CS(=O)(=O)CCSc1cccc(C#N)c1 : -15.9%
* CN(C)CCN1CCOCC2(C1)CN(Cc1ccsc1)CCO2.O=C(O)C(F)(F)F.O=C(O)C(F)(F)F.O=C(O)C(F)(F)F (centres unmarked) : -0.5767%
* O=C(O)C(F)(F)F.O=C(O)C(F)(F)F.c1cnc(N2CCC3(CCN(Cc4ccncc4)CC3)CC2)nc1 : -17.6%
* Cn1nnc(NCc2ccc(OCc3ccc(Cl)cc3)cc2)n1 : 27.31%
* Cc1nc2c(c(NC3CC3)n1)CCN(C(=O)C1(C#N)CC1)CC2 : 0.08518%
* Cc1csc(CNC(=O)NC2CCCc3c2cnn3CCO)n1 (centres unmarked) : 0%
* COCc1nn(C(C)C)c2c1CCN(Cc1ccc(C)s1)C2.O=C(O)C(F)(F)F : -7.39%
* N#Cc1cccc(S(=O)(=O)N2CCCCC2CCN2CCCC2=O)c1 (centres unmarked) : -7.39%
* CN1CCN(Cc2ccc(F)cc2)Cc2cccnc21 : 11.06%
* Cc1ccc(-c2nc(CN3CCCC(Cn4cncn4)C3)no2)cc1 (centres unmarked) : 17.6%
* Cc1oc(C)c(C(=O)N2CCCN(c3nccs3)CC2)c1C : 3.943%
* COc1cc(C(=O)NS(=O)(=O)c2ccc(C#N)cc2)ccc1C : 22.62%
* CCn1cnnc1CNC(=O)N(C)Cc1ccc2c(c1)OCCO2 : 8.32%

Once more, the final 2:

compound	effect
COc1cc(C(=O)NS(=O)(=O)c2ccc(C#N)cc2)ccc1C	22.62
CCn1cnnc1CNC(=O)N(C)Cc1ccc2c(c1)OCCO2	8.32

Measurements from “University of Dundee, Small-Polar-MMV Screening Library” (2021), ChEMBL document CHEMBL3988442.